{"source": "paper PMC5636874", "binders": {"B1": {"name": "PTPN1 (non-transmembrane protein tyrosine phosphatase 1) (enzyme, UniProt P18031 1-435)", "chain": "MEMEKEFEQIDKSGSWAAIYQDIRHEASDFPCRVAKLPKNKNRNRYRDVSPFDHSRIKLHQEDNDYINASLIKMEEAQRSYILTQGPLPNTCGHFWEMVWEQKSRGVVMLNRVMEKGSLKCAQYWPQKEEKEMIFEDTNLKLTLISEDIKSYYTVRQLELENLTTQETREILHFHYTTWPDFGVPESPASFLNFLFKVRESGSLSPEHGPVVVHCSAGIGRSGTFCLADTCLLLMDKRKDPSSVDIKKVLLEMRKFRMGLIQTADQLRFSYLAVIEGAKFIMGDSSVQDQWKELSHEDLEPPPEHIPPPPRPPKRILEPHNGKCREFFPNHQWVKEETQEDKDCPIKEEKGSPLNAAPYGIESMSQDTEVRSRVVGGSLRGAQAASPAKGEPSLPEKDEDHALSYWKPFLVNMCVATVLTAGAYLCYRFLFNSNT"}, "B2": {"name": "PTPN1, bacterially expressed (enzyme, UniProt P18031 1-435)", "chain": "B1 chain"}}, "key": {"[1]": {"molecular_target": "JNK (c-Jun N-terminal kinase, MAPK)", "assay": "co-IP; immunoprecipitation and immunoblot from 293 T cells, unstimulated and treated with TNFα for the indicated times after serum starvation"}, "[2]": {"molecular_target": "JNK, bacterially expressed", "assay": "pull-down; in vitro binding assay with bacterially expressed purified proteins; prey and bait incubated 2 h, glutathione sepharose 2 h, washed five times with PBS, immunoblot; both purified"}}, "note": "No constants are given. Whether binding was seen depends on the method and setting. Binding can be weak; no strength is given. For some assays here: Binding seen in cells or lysates may run through a third protein.", "data": [{"binder": "B1", "values": [{"measurement": "binding", "setting": "[1]", "result": "binds"}]}, {"binder": "B2", "values": [{"measurement": "binding", "setting": "[2]", "result": "binds"}]}]}
